The supplement of paper PMC12823440, “Inhibitors supercharge kinase turnover through native proteolytic circuits” (Nature, 2025)
The other results are listed elsewhere or left out. The calls rarely recur for the same compound in another form.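 In K562 cells expressing nanoluciferase-fused kinases, luminescence was recorded at 4 h intervals between 2 and 18 h, normalized as percent of control with DMSO at 100% and a positive control at 0%. A significant (2 sigma) signal drop marks a time point as decreased. The authors' rule for a hit is not shown and takes in more than the number of time points.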

Sequences of proteins named here, by UniProt entry; tags and fusion partners are left off. A change or cut given only in a name is not applied to a line headed by its entry.
UniProt Q06187: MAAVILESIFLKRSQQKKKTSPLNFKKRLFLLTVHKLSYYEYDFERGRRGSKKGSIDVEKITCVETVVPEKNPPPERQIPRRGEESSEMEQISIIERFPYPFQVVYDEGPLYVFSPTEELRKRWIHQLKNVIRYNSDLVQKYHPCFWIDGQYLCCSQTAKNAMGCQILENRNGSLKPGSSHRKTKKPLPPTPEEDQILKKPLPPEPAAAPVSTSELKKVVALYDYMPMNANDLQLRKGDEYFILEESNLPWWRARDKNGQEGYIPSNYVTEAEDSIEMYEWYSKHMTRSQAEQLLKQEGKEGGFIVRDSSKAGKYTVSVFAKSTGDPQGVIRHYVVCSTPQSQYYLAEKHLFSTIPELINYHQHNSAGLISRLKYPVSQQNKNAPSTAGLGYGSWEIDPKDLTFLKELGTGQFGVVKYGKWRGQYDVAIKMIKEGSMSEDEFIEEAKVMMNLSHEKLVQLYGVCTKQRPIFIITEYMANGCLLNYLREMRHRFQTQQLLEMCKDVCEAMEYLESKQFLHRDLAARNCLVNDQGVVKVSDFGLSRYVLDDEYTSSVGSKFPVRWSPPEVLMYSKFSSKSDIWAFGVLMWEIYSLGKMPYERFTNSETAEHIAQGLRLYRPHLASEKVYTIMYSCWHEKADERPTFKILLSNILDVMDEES
UniProt Q9UQM7, whole entry: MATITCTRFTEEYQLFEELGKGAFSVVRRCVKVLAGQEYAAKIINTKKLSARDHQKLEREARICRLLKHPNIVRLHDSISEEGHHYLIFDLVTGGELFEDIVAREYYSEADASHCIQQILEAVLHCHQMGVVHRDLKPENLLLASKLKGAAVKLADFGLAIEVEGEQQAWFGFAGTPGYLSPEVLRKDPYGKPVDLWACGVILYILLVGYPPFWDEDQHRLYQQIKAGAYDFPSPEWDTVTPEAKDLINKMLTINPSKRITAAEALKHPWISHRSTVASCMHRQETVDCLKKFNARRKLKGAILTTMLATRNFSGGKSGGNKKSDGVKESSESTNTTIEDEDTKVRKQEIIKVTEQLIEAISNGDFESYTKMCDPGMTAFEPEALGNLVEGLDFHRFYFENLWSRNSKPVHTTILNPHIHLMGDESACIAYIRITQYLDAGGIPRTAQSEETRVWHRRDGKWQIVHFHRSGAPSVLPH
UniProt Q15131: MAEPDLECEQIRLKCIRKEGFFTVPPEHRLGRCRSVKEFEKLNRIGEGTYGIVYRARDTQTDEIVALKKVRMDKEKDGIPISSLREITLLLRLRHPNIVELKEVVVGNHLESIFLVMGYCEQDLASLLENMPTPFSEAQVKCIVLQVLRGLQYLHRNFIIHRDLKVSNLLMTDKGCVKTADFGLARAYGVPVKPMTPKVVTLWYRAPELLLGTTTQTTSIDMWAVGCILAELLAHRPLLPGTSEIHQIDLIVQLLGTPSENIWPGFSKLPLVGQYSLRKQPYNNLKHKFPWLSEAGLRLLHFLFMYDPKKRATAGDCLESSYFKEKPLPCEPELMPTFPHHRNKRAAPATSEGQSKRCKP
UniProt Q00535, whole entry, looked up: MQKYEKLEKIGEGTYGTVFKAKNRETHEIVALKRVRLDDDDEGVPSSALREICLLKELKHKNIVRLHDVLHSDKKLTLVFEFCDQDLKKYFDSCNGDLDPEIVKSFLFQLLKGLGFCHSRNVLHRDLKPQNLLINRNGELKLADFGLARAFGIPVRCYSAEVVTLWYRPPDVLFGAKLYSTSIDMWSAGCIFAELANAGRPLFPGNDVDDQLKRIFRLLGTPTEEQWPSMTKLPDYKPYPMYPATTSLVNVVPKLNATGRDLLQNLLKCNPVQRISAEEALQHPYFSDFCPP
UniProt Q00534, whole entry: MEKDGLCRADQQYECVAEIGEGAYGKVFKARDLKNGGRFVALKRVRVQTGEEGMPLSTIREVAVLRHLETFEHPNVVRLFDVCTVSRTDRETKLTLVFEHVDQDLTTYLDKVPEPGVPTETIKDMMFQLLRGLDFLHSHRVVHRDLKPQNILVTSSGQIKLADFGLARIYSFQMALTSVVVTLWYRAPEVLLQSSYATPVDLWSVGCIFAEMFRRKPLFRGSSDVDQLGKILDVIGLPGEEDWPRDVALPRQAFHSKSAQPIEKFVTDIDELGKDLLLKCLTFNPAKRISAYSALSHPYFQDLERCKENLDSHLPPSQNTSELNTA
UniProt P50750, whole entry: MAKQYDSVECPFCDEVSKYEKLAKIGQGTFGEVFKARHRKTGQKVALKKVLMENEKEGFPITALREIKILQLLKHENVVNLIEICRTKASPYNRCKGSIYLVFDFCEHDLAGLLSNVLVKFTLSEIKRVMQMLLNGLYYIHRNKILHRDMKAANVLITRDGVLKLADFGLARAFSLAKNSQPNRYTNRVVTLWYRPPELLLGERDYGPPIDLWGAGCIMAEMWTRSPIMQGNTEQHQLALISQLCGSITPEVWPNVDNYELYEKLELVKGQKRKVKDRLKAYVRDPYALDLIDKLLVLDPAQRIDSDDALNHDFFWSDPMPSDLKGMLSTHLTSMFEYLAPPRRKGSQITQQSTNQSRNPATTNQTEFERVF
UniProt P07333, whole entry: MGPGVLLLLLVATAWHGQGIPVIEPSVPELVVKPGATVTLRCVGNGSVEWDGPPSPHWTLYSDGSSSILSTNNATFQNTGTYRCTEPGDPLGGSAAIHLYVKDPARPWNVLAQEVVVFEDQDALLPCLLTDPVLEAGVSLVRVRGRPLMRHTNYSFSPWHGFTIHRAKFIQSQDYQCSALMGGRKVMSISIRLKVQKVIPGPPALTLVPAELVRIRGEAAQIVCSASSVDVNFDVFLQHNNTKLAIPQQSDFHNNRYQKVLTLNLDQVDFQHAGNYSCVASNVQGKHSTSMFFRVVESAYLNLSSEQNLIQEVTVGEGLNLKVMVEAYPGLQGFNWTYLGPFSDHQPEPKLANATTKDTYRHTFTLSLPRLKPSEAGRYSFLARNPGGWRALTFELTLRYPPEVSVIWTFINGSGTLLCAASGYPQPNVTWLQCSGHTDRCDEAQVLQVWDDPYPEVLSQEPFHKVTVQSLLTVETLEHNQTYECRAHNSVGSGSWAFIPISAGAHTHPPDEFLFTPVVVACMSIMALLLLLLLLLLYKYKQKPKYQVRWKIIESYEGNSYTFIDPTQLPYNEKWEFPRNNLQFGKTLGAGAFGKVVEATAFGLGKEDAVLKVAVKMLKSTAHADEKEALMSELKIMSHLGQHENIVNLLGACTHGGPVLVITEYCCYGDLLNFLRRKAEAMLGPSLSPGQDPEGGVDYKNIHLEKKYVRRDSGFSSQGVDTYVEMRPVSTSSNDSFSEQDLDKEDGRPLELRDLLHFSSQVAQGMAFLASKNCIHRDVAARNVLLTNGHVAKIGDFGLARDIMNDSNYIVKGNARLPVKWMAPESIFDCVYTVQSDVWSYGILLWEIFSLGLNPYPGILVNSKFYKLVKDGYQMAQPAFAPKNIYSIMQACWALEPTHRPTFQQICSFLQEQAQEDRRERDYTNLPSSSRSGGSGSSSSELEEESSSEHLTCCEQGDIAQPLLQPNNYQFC
UniProt P41240: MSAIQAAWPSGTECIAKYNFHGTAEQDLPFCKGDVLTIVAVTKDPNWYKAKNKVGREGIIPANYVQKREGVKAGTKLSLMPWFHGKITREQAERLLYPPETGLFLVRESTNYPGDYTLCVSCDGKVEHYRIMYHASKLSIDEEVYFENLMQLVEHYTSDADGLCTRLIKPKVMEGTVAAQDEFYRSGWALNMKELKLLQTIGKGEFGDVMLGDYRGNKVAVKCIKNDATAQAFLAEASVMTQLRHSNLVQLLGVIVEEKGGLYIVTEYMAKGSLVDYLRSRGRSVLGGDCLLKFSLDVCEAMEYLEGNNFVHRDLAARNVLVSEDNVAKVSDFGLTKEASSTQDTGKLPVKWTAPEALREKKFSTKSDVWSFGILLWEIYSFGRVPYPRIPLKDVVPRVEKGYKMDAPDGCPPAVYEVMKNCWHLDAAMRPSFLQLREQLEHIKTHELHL
UniProt P48729: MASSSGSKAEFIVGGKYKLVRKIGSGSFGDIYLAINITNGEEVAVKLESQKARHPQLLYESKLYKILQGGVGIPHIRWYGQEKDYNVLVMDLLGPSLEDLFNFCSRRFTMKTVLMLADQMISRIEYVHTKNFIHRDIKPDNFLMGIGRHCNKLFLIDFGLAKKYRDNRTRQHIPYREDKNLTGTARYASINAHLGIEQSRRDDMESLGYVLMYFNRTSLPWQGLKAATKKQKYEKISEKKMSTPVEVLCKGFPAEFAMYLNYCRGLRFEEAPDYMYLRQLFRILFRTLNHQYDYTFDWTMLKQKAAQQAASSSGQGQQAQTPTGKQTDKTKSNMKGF
UniProt Q08345: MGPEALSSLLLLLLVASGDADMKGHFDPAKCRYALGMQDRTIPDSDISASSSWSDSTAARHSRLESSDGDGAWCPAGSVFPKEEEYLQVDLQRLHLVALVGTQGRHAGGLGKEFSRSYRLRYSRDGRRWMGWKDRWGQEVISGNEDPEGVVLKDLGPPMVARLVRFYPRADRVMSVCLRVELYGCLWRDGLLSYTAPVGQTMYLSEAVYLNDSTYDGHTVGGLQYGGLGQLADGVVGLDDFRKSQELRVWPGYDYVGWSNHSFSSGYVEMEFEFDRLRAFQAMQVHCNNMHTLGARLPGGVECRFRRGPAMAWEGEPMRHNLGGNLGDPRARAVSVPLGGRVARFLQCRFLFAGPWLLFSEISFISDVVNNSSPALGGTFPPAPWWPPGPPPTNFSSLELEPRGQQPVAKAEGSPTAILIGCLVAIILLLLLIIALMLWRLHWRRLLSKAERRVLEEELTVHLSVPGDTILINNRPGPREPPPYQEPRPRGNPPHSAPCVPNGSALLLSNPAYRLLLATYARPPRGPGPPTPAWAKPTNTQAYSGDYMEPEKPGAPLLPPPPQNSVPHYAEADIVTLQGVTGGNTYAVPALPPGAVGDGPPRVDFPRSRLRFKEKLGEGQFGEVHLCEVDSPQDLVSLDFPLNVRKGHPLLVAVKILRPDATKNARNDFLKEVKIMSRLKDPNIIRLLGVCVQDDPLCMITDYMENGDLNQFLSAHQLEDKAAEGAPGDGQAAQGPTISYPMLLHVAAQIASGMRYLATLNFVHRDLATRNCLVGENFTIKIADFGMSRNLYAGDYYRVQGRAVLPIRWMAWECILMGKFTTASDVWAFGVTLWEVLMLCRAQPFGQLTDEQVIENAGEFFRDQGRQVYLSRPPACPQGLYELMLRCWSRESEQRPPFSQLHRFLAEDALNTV
UniProt Q9Y463, whole entry, looked up: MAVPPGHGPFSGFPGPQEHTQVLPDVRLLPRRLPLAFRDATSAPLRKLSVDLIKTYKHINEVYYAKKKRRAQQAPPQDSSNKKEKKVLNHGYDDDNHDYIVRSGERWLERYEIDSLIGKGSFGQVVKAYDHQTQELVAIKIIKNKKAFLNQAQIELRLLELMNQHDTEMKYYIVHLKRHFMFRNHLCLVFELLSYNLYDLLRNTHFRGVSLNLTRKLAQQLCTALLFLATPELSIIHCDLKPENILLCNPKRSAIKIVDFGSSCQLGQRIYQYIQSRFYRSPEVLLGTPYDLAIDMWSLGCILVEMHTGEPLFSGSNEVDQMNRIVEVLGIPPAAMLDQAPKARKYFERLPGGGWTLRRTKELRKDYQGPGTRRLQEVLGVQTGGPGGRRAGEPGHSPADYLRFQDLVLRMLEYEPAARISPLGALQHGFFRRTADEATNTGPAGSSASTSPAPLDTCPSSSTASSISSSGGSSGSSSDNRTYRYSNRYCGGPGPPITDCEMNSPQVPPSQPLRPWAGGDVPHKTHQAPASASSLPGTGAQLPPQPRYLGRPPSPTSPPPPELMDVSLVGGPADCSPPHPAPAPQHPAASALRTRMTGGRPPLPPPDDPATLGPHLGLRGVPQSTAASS
UniProt Q92630: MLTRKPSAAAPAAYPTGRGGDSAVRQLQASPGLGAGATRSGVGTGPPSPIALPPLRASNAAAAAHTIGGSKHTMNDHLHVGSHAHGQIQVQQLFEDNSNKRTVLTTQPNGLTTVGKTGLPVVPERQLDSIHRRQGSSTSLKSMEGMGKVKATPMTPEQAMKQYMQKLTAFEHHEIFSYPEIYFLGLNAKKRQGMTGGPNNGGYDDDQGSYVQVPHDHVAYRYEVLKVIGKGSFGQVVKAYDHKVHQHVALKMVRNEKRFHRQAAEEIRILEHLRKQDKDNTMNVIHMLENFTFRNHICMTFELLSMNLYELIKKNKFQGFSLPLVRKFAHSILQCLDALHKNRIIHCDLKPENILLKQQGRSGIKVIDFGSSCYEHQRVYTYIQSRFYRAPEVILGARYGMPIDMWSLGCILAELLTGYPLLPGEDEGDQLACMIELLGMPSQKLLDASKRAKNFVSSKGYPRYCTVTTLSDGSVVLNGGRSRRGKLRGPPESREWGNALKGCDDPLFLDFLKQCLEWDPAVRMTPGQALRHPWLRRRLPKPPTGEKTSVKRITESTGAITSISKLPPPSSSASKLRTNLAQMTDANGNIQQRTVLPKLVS

Tests used:
Test in all cases: kinase-Nluc reporter destabilization hit call (1 = scored as downregulated) (binary); higher = compound decreases kinase abundance
Settings in all cases: K562; 2-18 h
[1] = test system: BRAF_V600E
[2] = biological target: BTK (UniProt Q06187)
[3] = biological target: CAMK2A (UniProt Q9UQM7)
[4] = biological target: CAMK2G (UniProt Q13555)
[5] = biological target: CDK10 (UniProt Q15131)
[6] = biological target: CDK2 (UniProt P24941)
[7] = biological target: CDK3 (UniProt Q00526)
[8] = biological target: CDK4 (UniProt P11802)
[9] = biological target: CDK5 (UniProt Q00535)
[10] = biological target: CDK6 (UniProt Q00534)
[11] = biological target: CDK7 (UniProt P50613)
[12] = biological target: CDK9 (UniProt P50750)
[13] = biological target: CHEK2 (UniProt O96017)
[14] = biological target: CSF1R (UniProt P07333)
[15] = biological target: CSK (UniProt P41240)
[16] = biological target: CSNK1A1 (UniProt P48729)
[17] = biological target: CSNK1D (UniProt P48730)
[18] = biological target: DDR1 (UniProt Q08345)
[19] = biological target: DYRK1B (UniProt Q9Y463)
[20] = biological target: DYRK2 (UniProt Q92630)

Measured: kinase-Nluc reporter destabilization hit call

COc1cc(F)c(F)c(Nc2ccc(I)cc2F)c1NS(=O)(=O)C1(C[C@H](O)CO)CC1 [Refametinib] (10 µM)
inactive: [1] 0 | [2] 0 | [3] 0 | [4] 0 | [5] 0 | [6] 0 | [7] 0 | [8] 0 | [9] 0 | [10] 0 | [11] 0 | [12] 0 | [13] 0 | [14] 0 | [15] 0 | [16] 0 | [17] 0 | [18] 0 | [19] 0 | [20] 0

c1cc2c(cc1O[C@H]1OC[C@H]3[C@@H]1CO[C@@H]3c1ccc3c(c1)OCO3)OCO2 [Sesamolin] (10 µM)
inactive: [1] 0 | [2] 0 | [3] 0 | [4] 0 | [5] 0 | [6] 0 | [7] 0 | [8] 0 | [9] 0 | [10] 0 | [11] 0 | [12] 0 | [13] 0 | [14] 0 | [15] 0 | [16] 0 | [17] 0 | [18] 0 | [19] 0 | [20] 0

CC(C)CN[C@H]1CS(=O)(=O)C[C@@H]1S(=O)(=O)c1ccc(Cl)cc1 (10 µM)
inactive: [1] 0 | [2] 0 | [3] 0 | [4] 0 | [5] 0 | [6] 0 | [7] 0 | [8] 0 | [9] 0 | [10] 0 | [11] 0 | [12] 0 | [13] 0 | [14] 0 | [15] 0 | [16] 0 | [17] 0 | [18] 0 | [19] 0 | [20] 0

N#Cc1c(-c2ccccc2)cc(-c2cc(Br)ccc2O)[nH]c1=O (10 µM)
inactive: [1] 0 | [2] 0 | [3] 0 | [4] 0 | [5] 0 | [6] 0 | [7] 0 | [8] 0 | [9] 0 | [10] 0 | [11] 0 | [12] 0 | [13] 0 | [14] 0 | [15] 0 | [16] 0 | [17] 0 | [18] 0 | [19] 0 | [20] 0

COc1cc2ncnc(Nc3cccc(Cl)c3)c2cc1OC (10 µM)
inactive: [1] 0 | [2] 0 | [3] 0 | [4] 0 | [5] 0 | [6] 0 | [7] 0 | [8] 0 | [9] 0 | [10] 0 | [11] 0 | [12] 0 | [13] 0 | [14] 0 | [15] 0 | [16] 0 | [17] 0 | [18] 0 | [19] 0 | [20] 0

C[C@@H](c1ccc2nccn2c1)n1nnc2ncc(-c3cnn(C)c3)nc21 [Savolitinib] (10 µM)
inactive: [1] 0 | [2] 0 | [3] 0 | [4] 0 | [5] 0 | [6] 0 | [7] 0 | [8] 0 | [9] 0 | [10] 0 | [11] 0 | [12] 0 | [13] 0 | [14] 0 | [15] 0 | [16] 0 | [17] 0 | [18] 0 | [19] 0 | [20] 0

CC(c1ccc(-c2cnc3c(-c4ccc(S(N)(=O)=O)c5ccccc45)cnn3c2)cc1)N1CCCC1 (stereo not given) (2.5 µM)
inactive: [1] 0 | [2] 0 | [3] 0 | [4] 0 | [5] 0 | [6] 0 | [7] 0 | [8] 0 | [9] 0 | [10] 0 | [11] 0 | [12] 0 | [13] 0 | [14] 0 | [15] 0 | [16] 0 | [17] 0 | [18] 0 | [19] 0 | [20] 0

O=C(O)CCc1ccc(O)c(O)c1 [Dihydrocaffeic acid] (10 µM)
inactive: [1] 0 | [2] 0 | [3] 0 | [4] 0 | [5] 0 | [6] 0 | [7] 0 | [8] 0 | [9] 0 | [10] 0 | [11] 0 | [12] 0 | [13] 0 | [14] 0 | [15] 0 | [16] 0 | [17] 0 | [18] 0 | [19] 0 | [20] 0

Cn1cc(Nc2nccc(N3C[C@H]4CC[C@@H](C3)N4C(=O)[C@@H]3CC3(F)F)n2)cn1 (10 µM)
inactive: [1] 0 | [2] 0 | [3] 0 | [4] 0 | [5] 0 | [6] 0 | [7] 0 | [8] 0 | [9] 0 | [10] 0 | [11] 0 | [12] 0 | [13] 0 | [14] 0 | [15] 0 | [16] 0 | [17] 0 | [18] 0 | [19] 0 | [20] 0

O=C(Nc1cccnc1)c1cc(C(=O)c2c(F)cccc2Br)c[nH]1 (10 µM)
inactive: [1] 0 | [2] 0 | [3] 0 | [4] 0 | [5] 0 | [6] 0 | [7] 0 | [8] 0 | [9] 0 | [10] 0 | [11] 0 | [12] 0 | [13] 0 | [14] 0 | [15] 0 | [16] 0 | [17] 0 | [18] 0 | [19] 0 | [20] 0

Cc1ccc2nc(NC(=O)CSc3nc4c(c(=O)n3-c3ccccc3)SCC4)sc2c1 (2 µM)
inactive: [1] 0 | [2] 0 | [3] 0 | [4] 0 | [5] 0 | [6] 0 | [7] 0 | [8] 0 | [9] 0 | [10] 0 | [11] 0 | [12] 0 | [13] 0 | [14] 0 | [15] 0 | [16] 0 | [17] 0 | [18] 0 | [19] 0 | [20] 0

Nothing new here: two of the compounds above.
Cn1cc(Nc2nccc(N3C[C@H]4CC[C@@H](C3)N4C(=O)[C@@H]3CC3(F)F)n2)cn1 (10 µM)
inactive: [1] 0 | [2] 0 | [3] 0 | [4] 0 | [5] 0 | [6] 0 | [7] 0 | [8] 0 | [9] 0 | [10] 0 | [11] 0 | [12] 0 | [13] 0 | [14] 0 | [15] 0 | [16] 0 | [17] 0 | [18] 0 | [19] 0 | [20] 0

O=C(Nc1cccnc1)c1cc(C(=O)c2c(F)cccc2Br)c[nH]1 (10 µM)
inactive: [1] 0 | [2] 0 | [3] 0 | [4] 0 | [5] 0 | [6] 0 | [7] 0 | [8] 0 | [9] 0 | [10] 0 | [11] 0 | [12] 0 | [13] 0 | [14] 0 | [15] 0 | [16] 0 | [17] 0 | [18] 0 | [19] 0 | [20] 0

The list goes on.

CCN(CC)c1ccc2cc(C(=O)N3CCN(C(=O)C4=Cc5c(Br)cccc5S4(=O)=O)CC3)c(=O)oc2c1 (2 µM)
inactive: [1] 0 | [2] 0 | [3] 0 | [4] 0 | [5] 0 | [6] 0 | [7] 0 | [8] 0 | [9] 0 | [10] 0 | [11] 0 | [12] 0 | [13] 0 | [14] 0 | [15] 0 | [16] 0 | [17] 0 | [18] 0 | [19] 0 | [20] 0

C#CCN(C)C(=O)CCNc1nc(N2CCN(C(=O)C=C)CC2)c2cc(Cl)c(-c3c(O)cccc3F)c(F)c2n1 [ARS-1323-alkyne] (2.5 µM)
inactive: [1] 0 | [2] 0 | [3] 0 | [4] 0 | [5] 0 | [6] 0 | [7] 0 | [8] 0 | [9] 0 | [10] 0 | [11] 0 | [12] 0 | [13] 0 | [14] 0 | [15] 0 | [16] 0 | [17] 0 | [18] 0 | [19] 0 | [20] 0

Cc1ccc(S(=O)(=O)Nc2ccccc2C=Nc2ccccc2NS(=O)(=O)c2ccc(C)cc2)cc1 (10 µM)
inactive: [1] 0 | [2] 0 | [3] 0 | [4] 0 | [5] 0 | [6] 0 | [7] 0 | [8] 0 | [9] 0 | [10] 0 | [11] 0 | [12] 0 | [13] 0 | [14] 0 | [15] 0 | [16] 0 | [17] 0 | [18] 0 | [19] 0 | [20] 0

O=C(/C=C/c1ccc(O)c(O)c1)c1ccc(O[C@@H]2O[C@H](CO)[C@@H](O)[C@H](O)[C@H]2O)c(O)c1O [Marein] (10 µM)
inactive: [1] 0 | [2] 0 | [3] 0 | [4] 0 | [5] 0 | [6] 0 | [7] 0 | [8] 0 | [9] 0 | [10] 0 | [11] 0 | [12] 0 | [13] 0 | [14] 0 | [15] 0 | [16] 0 | [17] 0 | [18] 0 | [19] 0 | [20] 0

COc1ccc2c(c1O)OC(C)(C)c1c-2ccc2c1C(=O)N(c1ccc(C(=O)c3ccccc3)cc1)C2=O [Ampkinone] (10 µM)
inactive: [1] 0 | [2] 0 | [3] 0 | [4] 0 | [5] 0 | [6] 0 | [7] 0 | [8] 0 | [9] 0 | [10] 0 | [11] 0 | [12] 0 | [13] 0 | [14] 0 | [15] 0 | [16] 0 | [17] 0 | [18] 0 | [19] 0 | [20] 0
